Assay results as given in paper PMC8384837.
Positions count from the first letter of the chain named. The list shows a part of the results. For some assays here: At the low end of the ranking, values are background and their order means little.

What was measured:
Conditions in all cases: yeast three-hybrid, YBZ-1, SC-Leu-His + 0.5 mM 3-AT, 4 days
[1] = target: T1, PUM1 PUF domain R3-LSS C935L + R936S + Q939S (UniProt Q14671)
T1 sequence: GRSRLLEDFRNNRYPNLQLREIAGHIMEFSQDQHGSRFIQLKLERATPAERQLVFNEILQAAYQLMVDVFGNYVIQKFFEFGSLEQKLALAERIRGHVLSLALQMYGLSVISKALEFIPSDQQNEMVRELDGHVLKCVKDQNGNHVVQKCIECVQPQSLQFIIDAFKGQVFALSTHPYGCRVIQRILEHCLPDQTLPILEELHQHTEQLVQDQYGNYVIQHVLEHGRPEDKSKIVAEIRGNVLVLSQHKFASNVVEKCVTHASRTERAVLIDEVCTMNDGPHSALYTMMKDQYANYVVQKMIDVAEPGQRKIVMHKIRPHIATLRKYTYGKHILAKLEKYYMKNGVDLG

[2] = target: T2, PUM1 PUF domain R3-LST C935L + R936S + Q939T (UniProt Q14671)
T2 sequence: T1 sequence with S112T

[3] = target: T3, PUM1 PUF domain R3-LSV C935L + R936S + Q939V (UniProt Q14671)
T3 sequence: T1 sequence with S112V

[4] = target: T4, PUM1 PUF domain R3-LWD C935L + R936W + Q939D (UniProt Q14671)
T4 sequence: T1 sequence with S109W, S112D

[5] = target: T5, PUM1 PUF domain R3-MCG C935M + R936C + Q939G (UniProt Q14671)
T5 sequence: T1 sequence with L108M, S109C, S112G

[6] = target: T6, PUM1 PUF domain R3-MCR C935M + R936C + Q939R (Homo sapiens) (UniProt Q14671)
T6 sequence: T1 sequence with L108M, S109C, S112R

[7] = target: T7, PUM1 PUF domain R3-MCV C935M + R936C + Q939V (UniProt Q14671)
T7 sequence: T1 sequence with L108M, S109C, S112V

[8] = target: T8, PUM1 PUF domain R3-MRW C935M + Q939W (Homo sapiens) (UniProt Q14671)
T8 sequence: T1 sequence with L108M, S109R, S112W

[9] = target: T9, PUM1 PUF domain R3-MSR C935M + R936S + Q939R (UniProt Q14671)
T9 sequence: T1 sequence with L108M, S112R

[10] = target: T10, PUM1 PUF domain R3-NPG C935N + R936P + Q939G (UniProt Q14671)
T10 sequence: T1 sequence with L108N, S109P, S112G

[11] = target: T11, PUM1 PUF domain R3-QPE C935Q + R936P + Q939E (UniProt Q14671)
T11 sequence: T1 sequence with L108Q, S109P, S112E

[12] = target: T12, PUM1 PUF domain R3-QPG C935Q + R936P + Q939G (UniProt Q14671)
T12 sequence: T1 sequence with L108Q, S109P, S112G

[13] = target: T13, PUM1 PUF domain R3-QPS C935Q + R936P + Q939S (UniProt Q14671)
T13 sequence: T1 sequence with L108Q, S109P

[14] = target: T14, PUM1 PUF domain R3-QRA C935Q + Q939A (Homo sapiens) (UniProt Q14671)
T14 sequence: T1 sequence with L108Q, S109R, S112A

[15] = target: T15, PUM1 PUF domain R3-QRG C935Q + Q939G (Homo sapiens) (UniProt Q14671)
T15 sequence: T1 sequence with L108Q, S109R, S112G

[16] = target: T16, PUM1 PUF domain R3-QRR C935Q + Q939R (Homo sapiens) (UniProt Q14671)
T16 sequence: T1 sequence with L108Q, S109R, S112R

[17] = target: T17, PUM1 PUF domain R3-QRS C935Q + Q939S (Homo sapiens) (UniProt Q14671)
T17 sequence: T1 sequence with L108Q, S109R

[18] = target: T18, PUM1 PUF domain R3-QRV C935Q + Q939V (UniProt Q14671)
T18 sequence: T1 sequence with L108Q, S109R, S112V

[19] = target: T19, PUM1 PUF domain R3-RAA C935R + R936A + Q939A (UniProt Q14671)
T19 sequence: T1 sequence with L108R, S109A, S112A

[20] = target: T20, PUM1 PUF domain R3-RAC C935R + R936A + Q939C (UniProt Q14671)
T20 sequence: T1 sequence with L108R, S109A, S112C

## GGCUAGAACUAGUGGAUCCCCCGGCGCCCGGCGGCUCGAGCCCGGGUAAGUGUAAAUAGUCUGCAUGCCGCCGGGCGCCAUGCCUGCAGGUCGACUCUAGAAAACAUG
[1]
  binding signal (log2 enrichment (interaction score)): -4.17
[2]
  binding signal (log2 enrichment (interaction score)): -3.93
[3]
  binding signal (log2 enrichment (interaction score)): -6.99
[4]
  binding signal (log2 enrichment (interaction score)): -6.66
[5]
  binding signal (log2 enrichment (interaction score)): < -7.31
[6]
  binding signal (log2 enrichment (interaction score)): -1.04
[7]
  binding signal (log2 enrichment (interaction score)): -5.77
[8]
  binding signal (log2 enrichment (interaction score)): 0.23
[9]
  binding signal (log2 enrichment (interaction score)): -3.13
[10]
  binding signal (log2 enrichment (interaction score)): < -6.92
[11]
  binding signal (log2 enrichment (interaction score)): < -7.9
[12]
  binding signal (log2 enrichment (interaction score)): -3.25
[13]
  binding signal (log2 enrichment (interaction score)): -3.71
[14]
  binding signal (log2 enrichment (interaction score)): -3.09
[15]
  binding signal (log2 enrichment (interaction score)): -1.06
[16]
  binding signal (log2 enrichment (interaction score)): -0.02
[17]
  binding signal (log2 enrichment (interaction score)): -1.99
[18]
  binding signal (log2 enrichment (interaction score)): < -7.29
[19]
  binding signal (log2 enrichment (interaction score)): -3.81
[20]
  binding signal (log2 enrichment (interaction score)): -3.58
